## Assay results

From PubChem BioAssay record AID504749 (NCATS, 2011).

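Malaria parasite (P. falciparum) lines kept in red blood cells; parasite DNA is measured by SYBR Green fluorescence after lysis, 72 h after compound addition.
Each compound was titrated across a series from about 0.000037 to 29 µM.
The number is the fitted AC50, the concentration giving a half-maximal change in signal; a lower value means higher potency, whether the curve shows a decrease or an increase.
Calls follow the curve class and fit quality: every row here is inconclusive, covering signal-raising curves and weak, poorly fitted, partial or highest-dose-only inhibition curves.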

Values are in µM.
All entries here are filed as inconclusive.
Only part of the assay is shown, chiefly results filed as inconclusive.
A potency from a partial, single-point or poor curve is only a rough figure.
The first word of each remark tells which way the curve ran; it can be opposite to the aim of the assay.

| Compound | condition | Potency (µM) | curve as filed |
|---|---|---|---|
| `CCOc1ccc2c3c1O[C@H]1[C@@H](O)C=C[C@H]4[C@@H](C2)N(C)CC[C@@]341` | CP203 | 19.01 | inhibitor, single point |
| `CCOc1ccc2c3c1O[C@H]1[C@@H](O)C=C[C@H]4[C@@H](C2)N(C)CC[C@@]341` | CP194 | 19.01 | inhibitor, single point |
| `CCOc1ccc2c3c1O[C@H]1[C@@H](O)C=C[C@H]4[C@@H](C2)N(C)CC[C@@]341` | DIV17 | 16.94 | inhibitor, single point |
| `CCOc1ccc2c3c1O[C@H]1[C@@H](O)C=C[C@H]4[C@@H](C2)N(C)CC[C@@]341` | CP269 | 13.46 | inhibitor, single point |
| `CCOc1ccc2c3c1O[C@H]1[C@@H](O)C=C[C@H]4[C@@H](C2)N(C)CC[C@@]341` | CP215 | 19.01 | inhibitor, single point |
| `CCOc1ccc2c3c1O[C@H]1[C@@H](O)C=C[C@H]4[C@@H](C2)N(C)CC[C@@]341` | DIV30 | 19.01 | inhibitor, single point |
| `CCOc1ccc2c3c1O[C@H]1[C@@H](O)C=C[C@H]4[C@@H](C2)N(C)CC[C@@]341` | PC26 | 15.1 | inhibitor, single point |
| `CCOc1ccc2c3c1O[C@H]1[C@@H](O)C=C[C@H]4[C@@H](C2)N(C)CC[C@@]341` | CP305 | 16.94 | inhibitor, single point |
| `CCOc1ccc2c3c1O[C@H]1[C@@H](O)C=C[C@H]4[C@@H](C2)N(C)CC[C@@]341` | CP315 | 19.01 | inhibitor, single point |
| `CCOc1ccc2c3c1O[C@H]1[C@@H](O)C=C[C@H]4[C@@H](C2)N(C)CC[C@@]341` | GB4 | 16.94 | inhibitor, single point |
| `CCOc1ccc2c3c1O[C@H]1[C@@H](O)C=C[C@H]4[C@@H](C2)N(C)CC[C@@]341` | CP325 | 15.1 | inhibitor, single point |
| `CCOc1ccc2c3c1O[C@H]1[C@@H](O)C=C[C@H]4[C@@H](C2)N(C)CC[C@@]341` | CP262 | 19.01 | inhibitor, partial curve, poor fit |
| `CCOc1ccc2c3c1O[C@H]1[C@@H](O)C=C[C@H]4[C@@H](C2)N(C)CC[C@@]341` | CP268 | 13.46 | inhibitor, single point |
| `CCOc1ccc2c3c1O[C@H]1[C@@H](O)C=C[C@H]4[C@@H](C2)N(C)CC[C@@]341` | CP291 | 19.01 | inhibitor, single point |
| `CCOc1nc2cccc(C(=O)O)c2n1Cc1ccc(-c2ccccc2-c2nn[nH]n2)cc1` | CP194 | 15.1 | inhibitor, single point |
| `CCOc1nc2cccc(C(=O)O)c2n1Cc1ccc(-c2ccccc2-c2nn[nH]n2)cc1` | DIV30 | 21.33 | inhibitor, single point |
| `CCOc1nc2cccc(C(=O)O)c2n1Cc1ccc(-c2ccccc2-c2nn[nH]n2)cc1` | ECU | 8.912 | inhibitor, single point |
| `CCOc1nc2cccc(C(=O)O)c2n1Cc1ccc(-c2ccccc2-c2nn[nH]n2)cc1` | TAB113 | 11.22 | inhibitor, single point |
| `CCOc1nc2cccc(C(=O)O)c2n1Cc1ccc(-c2ccccc2-c2nn[nH]n2)cc1` | DIV17 | 21.33 | inhibitor, single point |
| `CCOc1nc2cccc(C(=O)O)c2n1Cc1ccc(-c2ccccc2-c2nn[nH]n2)cc1` | AA1029 | 10 | inhibitor, single point |
| `CCOc1nc2cccc(C(=O)O)c2n1Cc1ccc(-c2ccccc2-c2nn[nH]n2)cc1` | AS120 | 10 | inhibitor, single point |
| `CCOc1nc2cccc(C(=O)O)c2n1Cc1ccc(-c2ccccc2-c2nn[nH]n2)cc1` | C2A | 8.912 | inhibitor, single point |
| `CCOc1nc2cccc(C(=O)O)c2n1Cc1ccc(-c2ccccc2-c2nn[nH]n2)cc1` | TAB165 | 12.59 | inhibitor, single point |
| `CCOc1nc2cccc(C(=O)O)c2n1Cc1ccc(-c2ccccc2-c2nn[nH]n2)cc1` | CP217 | 17.78 | inhibitor, single point |
| `CCOc1nc2cccc(C(=O)O)c2n1Cc1ccc(-c2ccccc2-c2nn[nH]n2)cc1` | CP269 | 19.01 | inhibitor, single point |
| `CCOc1nc2cccc(C(=O)O)c2n1Cc1ccc(-c2ccccc2-c2nn[nH]n2)cc1` | PC26 | 7.569 | inhibitor, partial curve, poor fit |
| `CCOc1nc2cccc(C(=O)O)c2n1Cc1ccc(-c2ccccc2-c2nn[nH]n2)cc1` | CP215 | 15.1 | inhibitor, single point |
| `CCOc1nc2cccc(C(=O)O)c2n1Cc1ccc(-c2ccccc2-c2nn[nH]n2)cc1` | ICS | 10 | inhibitor, single point |
| `CCOc1nc2cccc(C(=O)O)c2n1Cc1ccc(-c2ccccc2-c2nn[nH]n2)cc1` | CP203 | 19.01 | inhibitor, single point |
| `CCOc1nc2cccc(C(=O)O)c2n1Cc1ccc(-c2ccccc2-c2nn[nH]n2)cc1` | CP268 | 0.8492 | activator, full curve, poor fit |

3 of the entries, repeated:

Compound	condition	Potency (µM)	curve as filed
CCOc1nc2cccc(C(=O)O)c2n1Cc1ccc(-c2ccccc2-c2nn[nH]n2)cc1	CP217	17.78	inhibitor, single point
CCOc1ccc2c3c1O[C@H]1[C@@H](O)C=C[C@H]4[C@@H](C2)N(C)CC[C@@]341	CP305	16.94	inhibitor, single point
CCOc1nc2cccc(C(=O)O)c2n1Cc1ccc(-c2ccccc2-c2nn[nH]n2)cc1	CP269	19.01	inhibitor, single point